Reference: publication PMC11651612
No constants are given. Whether binding was seen depends on the method and setting. In cells and extracts the contact can be indirect. These calls come from enrichment with a bait or labelling near it, and not all partners need be listed. Blank lines part the entries; values can stand above or below the binder they belong to.

Assays:
[1] = target: T1, Cdc10-mCherry (C. neoformans) (UniProt J9VMT9); test: affinity purification with mass spectrometry; mCherry-tagged septin captured from C. neoformans lysate on RFP-Trap agarose, 4 h at 4°C, washed with TBS with 2 M urea pH 7.5; GeLC-MS/MS; untagged H99 as negative control; hits logFC >2 and adjusted p <0.001 (text-named hits <0.05); exponential cultures at ~25°C or shifted to 37°C for 2 h; N = 5
T1 sequence: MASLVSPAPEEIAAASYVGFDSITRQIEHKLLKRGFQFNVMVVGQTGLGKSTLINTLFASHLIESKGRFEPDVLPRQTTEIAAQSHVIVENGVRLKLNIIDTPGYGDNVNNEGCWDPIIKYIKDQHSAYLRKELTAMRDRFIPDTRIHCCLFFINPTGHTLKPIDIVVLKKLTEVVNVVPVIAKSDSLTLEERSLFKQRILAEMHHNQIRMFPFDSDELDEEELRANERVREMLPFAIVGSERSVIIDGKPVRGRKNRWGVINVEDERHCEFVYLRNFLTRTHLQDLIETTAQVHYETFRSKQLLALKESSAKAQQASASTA

[2] = target: T2, Cdc3-mCherry (C. neoformans) (UniProt J9VUF2); test: as above
T2 sequence: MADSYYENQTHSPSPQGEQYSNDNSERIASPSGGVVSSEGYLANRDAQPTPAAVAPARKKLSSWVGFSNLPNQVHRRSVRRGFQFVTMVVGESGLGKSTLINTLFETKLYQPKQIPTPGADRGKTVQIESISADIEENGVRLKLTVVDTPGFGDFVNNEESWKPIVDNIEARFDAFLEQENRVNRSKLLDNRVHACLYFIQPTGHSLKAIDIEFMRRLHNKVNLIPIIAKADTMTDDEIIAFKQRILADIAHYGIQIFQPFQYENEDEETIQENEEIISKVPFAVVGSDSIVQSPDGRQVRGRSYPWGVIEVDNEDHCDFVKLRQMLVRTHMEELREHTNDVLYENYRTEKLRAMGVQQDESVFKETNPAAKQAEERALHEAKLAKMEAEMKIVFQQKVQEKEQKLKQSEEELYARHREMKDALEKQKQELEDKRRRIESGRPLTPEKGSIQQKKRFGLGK

B2: Kynurenine 3-monooxygenase [BNA4] (protein, UniProt J9VMV3 1-507)
chain: MPQSRARKVLVVGAGPVGALTALSLHRRGWEVEVWESRDDPRGQDAAPSNLRSINLAISSRGLEALRSVDPSIAENFLEEAIPMKGRMIHHTDGKQESQLYDPIGGQSINSISRPILNQRLVQSLPETIKLRFNTKLKHIDFKNRVAYASHKQEATLLPGEESGKDKKESTEDEDDGTAFDLVIGCDGSWSKVRTAMMRAERIDFSQSFIPHAYIELHMPSNPDFPGGYAMDKNHLHIWPRHAFMLIGLPNKDGSFTLTLFIPFSSLELLNTRESAATFFREHFPSAVDIVGEKVLLDDFEKNPRGNLVTINCTPSAWSSHAILLGDASHSMVPFYGQGLNCGLEDVRVLSSILERHHISSTTTLALGETDPELELALKAYSDERQGDLKAICELALQNYTEMRSHVLSPLHHLRRQVDKMFTTLFRSAPQATLSLTEPFPTKRVRGWTSLYEMVTFRPDVGYSEALRKERWQKDVVGYTGWVGGVIGIGAAGVFAATMAKKWLERR
binding [1]: binds | binding [2]: binds

B6: Cyclin-dependent kinases regulatory subunit (protein, UniProt J9VRP5 1-104)
chain: MAPGKQPATLEELSERIIYSDRYSDDRFEYRHVILPKQMLKLIPKRYFASDDSGLLRILEEDEWRGIGITQSLGWEHFEVHAPEPHILLFRRPLPGSNANAKRQ
binding [1]: binds | binding [2]: binds

B7: W2 domain-containing protein (protein, UniProt J9VK83 1-432)
chain: MSHTPTSTASGNAPTTDKKPSLTGVRIKQRKGQAKATAKFEPEAFRDALLLHLALLPHPITKDALVAKLVQAGSTLEFLKYSEQLFELLFVGGLLQPGGSYLDDKRSPVYILQPDDAPDAFQDGVKGMIEVLKRVMQRYKYLQKPLEENFLPGVLSYLPKWDVKSREKLAEAIALLTIELQISSRCLQSLAKEHVVKDNVALNFLTAFIKTYLSRQSIDQFGSTLRRSGLKSILAVFPLQIRDRKHLEAHFREENLQVVNDWYAKLALGEVKDETVQAVERMINDDETSDQIVEALKLQQSERPVSEADISEWIWLALMGTVDWTARSDQIDTFVISHITRYASILETFCQSAKAQVNLINAVQVYCYTDTRIIKSFVQILKVLYNADVVSDQAIIYWHQKGAKPNGKGHFLKVAEPLVKFLSEQESDSEEE
binding [1]: binds | binding [2]: binds

B8: Probable acetate kinase (protein, UniProt J9W3A6 1-430)
chain: MPDKAEYLLAINCGSSSIKGKLFAIPSFELLANLAVTNISSSDERVKIKTTWEEGKGKDSEEEADYGDKIRYASLVPILLDHLTNSTHVKKEEIKYVCHRVVHGGMHDKGIRVVKGHEEGLMEMDKLSEFAPLHNHRAVLAVKSCIDALPHHTSLLLFDTIFHRTIAPEVYTYALPPPDTELTMPLRKYGFHGLSYASIVQSLAEHLKKPSDQINVVVAHLGSGSSSCCIKNGKSIDTSMGLTPLEGLLGGTRSGTIDPTAIFHHTEDAASDANVGDFTVSKAEIILNKNSGFKALAGTTNFGHIIQNLDPSKCSEEDHEKAKLTYAVFLDRLLNFVAQYLFKLLSEVPIESIDGLVFSGGIGEKGAELRRDVLKKLAWLGAEVDEEANNSNSGGAVKCITKEGSKLKGWVVETDEEGWMARMAKEEFGF
binding [1]: binds | binding [2]: binds

The next lines start with the values.

binding [1]: binds
B1: RNA-binding protein (protein, UniProt J9VQW4 1-607)
chain: MPFNDELDTPAFRAWLSRTIEPLCDADPTVLSDYIVALMKHDASMTEDEWKAFISRELVDFLESSSRPFVETLFQTLHSKDYDLTQTLPAPAVSHHIPTGPAAGVAPQPSAGPSTVQNGQQRDVTMQEMPVGVSGRRKCRDYHERGYCMRGANCQYEHSADMLIPTPEMMFQGFLPPFMPGMPGMPIQYPGMQPVRPMTMQGPGFRDGPNGRNRSFGNRPPPSNEGENFEGSSRPPSDHSKTTLLITDIPEANMSVVAIRNYFQQFGTITSVALEGRGNRALVSFASNLEAYKAWKSDEAVFGNRHVKVLWHKPRPGQGAAGQKALEQSKKLLENLQKMEAGEGPNQGVKPKLSGPETRLQATLAELEHREKQSKKEPLIAEQKVLLKRASTGTKEEKVQILKRLREITKELEIINNPPPKPESMDVDDAKSRLDRELAAHGMEMGGQDEEELARLNAQLASLKEKANTLGVNASARYSPYSRGRGGRGRGRGGPPRPMRLDNRSRTILVSGDRFGDEEARRVVQEWYESTGGGVEFVDGSLRITYPQREMAEKALALGTNELREKAGPIRTAWEPLKPVERYQPPDVEMTVHMGEEELRGEKDDDE

binding [1]: binds | binding [2]: binds
B3: Tyrosyl-DNA phosphodiesterase 1 (protein, UniProt J9VKG1 1-655)
chain: MGSDEQPSWTPLSRSNQQSVDHDDEDDEQLRIAIALSQTEARETKRARREETPDDEKQMLEEAIAASLAEAGSSTNPETIISQQPVGSPATPIVAPAEEAPSSLRVGSQTYDRAQMNRERLQRQAAREKIEAERSRRDGIATFEQTSSQLPQARKAASAQWPPPTGAHPFQRTAPFPRDAAGEYYLEGELRHTGNMWASEDPTGNIRSPTFSLTHVVGNHSQISLIITSAYCIDDSWINEAGILPDPVDVPIVMIRPYPKDLRHRLNGKVVSQLNGEVWCYPDMKDNWGTMHMKFFWIFYKTGRLRVCISTANLVPYDWSMMENSVFVQDFPRLDTPIQGLSADTPTHDLAVQFRTLFKHIGVDSALTLLSKNHPQGNQIPFSGQNDFADLRHWDWGKVRFRTVISISEKLSGASDVSRFGIGRLGHVLDTEGWLPDEEEKAVIEYQGSSLGQYSLNWLHNFYSFCTGKKISSLVTNSKPSSWPPIKIIFPSLGTVDNSVGGRDGGGTIFAGKGWNANTKDLFYDSNSKRGGILMHAKMMIAIFHPKTRTPSSQTPSSASLGKRKALELDEVENRIGGWVYVGSHNFSPAAWGTLDTKKSPVTLSIKNYELGIVFPLYGQQSNAAADKVAPYKRPPKKYSVGDEPWDQKKHGFGL

binding [1]: binds | binding [2]: binds
B4: Protein CFT1 (protein, UniProt J9VWW6 1-1431)
chain: MHALHQTLLPSSSIHHSLFLPHFTPSTIYPLPKPPAVLDTPDVKVIGNLVVAGAEVLRVFEIREESVPIIEKAKLEEDVAEGEKDVQMEEVGDGFFDDGHAERAPLKYQTTRRLHLLTQHELNGTVTGLAATRTLESTIDGLDRLIVSFKDAKMALLEWSRGDIATVSLHTYERCSQMNTGDLQSYVPLLRTDPLWRLAVLTLPEDSLAVLPLIQEQSELDPLSEGFSRDAPYSPSFVLSLSDVSTTIKNIQDLLFLPGFHSPTIALLFSPMHTWSGRLQTVKDTFCLEIRTFDLSSGTSYPLLTSVSGLPSDSLYLVACPSELGGIVIVTSTGIVHVDQGGRVAAACVNAWWSRITSLKCSTASVSQKLTLEGSRCVFVTPHDMLLVLQNGAVHQVRFSMEGRAVGVIEVLDKGCVVPPPSDLTVAGDGAVFVGSAEGDSWLAKVNVVRQVVERAEKKKDEMEVDWDEDLYGDINDAALDEKAQEQFGPAAITLSPYDILTGVGKIMDIEFGIAASDQGLRTYPQLVAVSGGSRNSTFNVFRRGIPITKRRRFNELLNADGVWFLPIDRQTGQKFKDIPEAERATMLLSSEGNATRVFALSSKPTPQQIGRLDGKTLSAAPFFQRSCILHVSPLEVVLLDNNGKIIQTVCPRGDGPKIVNASISDPFVIIRRADDSVTFFVGDTVARTVGEAPIVSEGESPVCQAVEIFTDTTGVYRTFEPSKSQSSESASHHTDSESKPYITNGTNGTTARSTRQTQLTPEQIKRLQEQEPAITTEAPSMETAINSSHGTQWLALVTRSGELQIRSLPDLHIVLQSEGLGSSAPSFTDDLGENPGYVLGEKREEGEEEDEIIQMVFCPIGKGTVRQHLLALHHSGRLNAYEAQPRFTVDASSHSRRSLAVRFRKVHTQLLPISGGVGTTNGNARLPYTIVPFNNIEGLTGAFITGEKPHWIISSEAHPLRAFALKQAAMAFGKTTHLGGKGEYFIRIEDGSFICYLPPTLNTDFAIPCDRYQMERAYTNITFDPTSAHYVGAASIEVPFQAYDEEGEIQLGPDGPDLIPPTNQRSTLELFSQGSDPWRVIDGYEFDQNEEVMSMESVNLESPGAPGGYRDFIAVGTGFNFGEDRATRGNTYIFEILQTVGPQGGGGPGSVPGWKLVKRTKDPARHPVNAVNHINGYLLNTNGPKLYVKGLDYDAQLMGLAFLDIQLYATTVKVFKNFMLIGDLCKSFWFVSLQEDPYKFTTISKDLQHVSVVTADFLVHDGQVTFISSDRNGDMRMLDFDPTDPDSLNGERLMLKTEYHAGSAATVSKVIARRKTAEEEFAPQTQIIYATADGALTTVVSVKDARFKRLQLVSDQLVRNAQHVAGLNPRAFRTVRNDLLPRPLSKGILDGQLLNQFALQPIGRQKEMMRQIGTDAVTVASDLQALGGFW

binding [1]: binds | binding [2]: binds
B5: tRNA-dihydrouridine synthase 1 (protein, UniProt J9VE31 1-615)
chain: MSAAAQVVNSEEPQSVGEELRTKKQFPTFPAPGKPKHEKLGGYDFYRSIGSPKFVVAPMVDQSELAWRLLSRSPLPPALAGPSETVITPQGKTYIRHPGGAHVCYTPMIHAKVFVDAKGEGGRNGDGQFCLSLDEEGGEGVIGGVEGGDRPLIVQFCANDPDILLAAAKKVEHRCDAVDINFGCPQGIAKRGHYGSFLQDEWELIHKLISTLHENLSVPVTAKFRIFPDLDKTIAYARMMEAAGAQILTCHGRTREMKGQNTGLADWEYIREVKKAVKVPVFANGNILYREDVDRCMEVTGCDGVMSAEGNLSNPAIFMPPEHPHAHPPITMLAHRYLDIVEALDTPTAGSAIKAHLFRLLKPVLDTDEELRVQIATCRWSDGMDGFREIIRDIERRCAPVREALGADWRPPAVDPKTGYRSLPMFAAQPQIRAKPVSTEIGGHEDMVSRPVSPGKDGEDRMFDTPNITTAPASSVPGTVLFSRSHRHTSLGQTERCVHSDCTGVAATRCPTRACITHCRILRAVEAGYTREEAEAEGAKGGLVGMGCDAHEEKVRARKEREARKRKGREMAKEKAKERKKEEKAKAKEEREKSKEKVEMTEEEASFAAGLAVNL
